Results on two molecules are retold here after ChEMBL document CHEMBL5729263, “Treatment of tachycardia” (2022).

The chains behind the UniProt entries cited, without tags or fusion partners. Where a name states a change or a piece, a line headed by the entry shows the natural chain unless it says otherwise.
UniProt Q9Y233: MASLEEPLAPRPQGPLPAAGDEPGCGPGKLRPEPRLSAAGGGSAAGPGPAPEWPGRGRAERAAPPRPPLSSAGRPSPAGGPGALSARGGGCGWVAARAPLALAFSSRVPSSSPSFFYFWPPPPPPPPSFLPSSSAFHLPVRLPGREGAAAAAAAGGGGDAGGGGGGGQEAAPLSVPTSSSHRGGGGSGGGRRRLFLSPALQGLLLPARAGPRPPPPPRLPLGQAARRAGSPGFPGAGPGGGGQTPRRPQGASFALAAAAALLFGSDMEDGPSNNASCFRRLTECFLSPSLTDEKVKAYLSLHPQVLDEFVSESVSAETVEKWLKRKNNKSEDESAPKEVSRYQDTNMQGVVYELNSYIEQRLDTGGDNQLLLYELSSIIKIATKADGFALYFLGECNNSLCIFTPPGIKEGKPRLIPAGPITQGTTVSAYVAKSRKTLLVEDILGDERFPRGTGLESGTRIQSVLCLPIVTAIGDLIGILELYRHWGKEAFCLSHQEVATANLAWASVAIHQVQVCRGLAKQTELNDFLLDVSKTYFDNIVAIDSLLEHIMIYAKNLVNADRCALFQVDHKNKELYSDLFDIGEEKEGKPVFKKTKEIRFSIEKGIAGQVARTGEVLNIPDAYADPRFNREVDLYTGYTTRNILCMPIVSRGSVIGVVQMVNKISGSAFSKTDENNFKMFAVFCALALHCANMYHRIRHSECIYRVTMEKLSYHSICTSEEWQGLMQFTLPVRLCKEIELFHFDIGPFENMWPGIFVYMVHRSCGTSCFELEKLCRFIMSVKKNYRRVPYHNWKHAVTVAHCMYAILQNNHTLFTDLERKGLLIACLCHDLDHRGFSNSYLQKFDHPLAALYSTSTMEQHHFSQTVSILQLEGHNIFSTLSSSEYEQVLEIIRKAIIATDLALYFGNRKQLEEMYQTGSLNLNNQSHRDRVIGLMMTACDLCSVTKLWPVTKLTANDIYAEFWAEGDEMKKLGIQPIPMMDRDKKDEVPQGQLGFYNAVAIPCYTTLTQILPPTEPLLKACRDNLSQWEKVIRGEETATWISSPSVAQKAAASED

This assay addresses cAMP and cAMP-inhibited cGMP 3',5'-cyclic phosphodiesterase 10A (Homo sapiens, UniProt Q9Y233).

With `CCCOc1ccc(F)c(-c2nc(C)c3nnc4ccc(OC)nc4n23)c1`, the IC50 (in general, the concentration that inhibits the measured activity by half) was 282 nM.

As to `CN1CCN(c2ccc(Oc3nn4c(-c5ccccc5Cl)nnc4c4ccccc34)cc2)CC1`, the Ki (commonly the dissociation constant of the complex between target and ligand, obtained from inhibition or displacement) turned out to be 1800 nM.
